PubChem BioAssay AID493246, Drosophila RNAi Screening Center, 2011
The screen tested about 21,000 reagents; below is a random part of those with a known target gene and a result. Over the whole deposit, 429 (2%) are marked active. 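Values are raw and not normalised between plates; calls rest on per-plate z-scores that were not deposited.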 Names joined by + are all predicted targets of the reagent. Reagent sequences are not shown. Not stated in the record: the amount of reagent, the time to read-out.

- Purpose: 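Genes fly cells need to grow and stay alive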 (primary screen)
- System: Drosophila Kc and S2R+ cells
- Knock-down reagent: long dsRNA against Drosophila genes
- Detection: 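Cell number per well after knock-down, printed as raw plate values; calls were based on per-plate z-scores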
- Reading the numbers: Kc cell number and S2R+ cell number: higher = more cells remaining
- Rule for the call: 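Counted as a hit if cell number falls by a z-score of at least 3 within its plate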

| Gene | dsRNA | Kc cell number, rep 1 | Kc cell number, rep 2 | S2R+ cell number, rep 1 | S2R+ cell number, rep 2 | Call |
| --- | --- | --- | --- | --- | --- | --- |
| CG34331 | DRSC20679 | 1.45e6 | 1.44e6 | 1.04e6 | 1.16e6 | inactive |
| ste24c + CG30461 | DRSC05639 | 5.32e5 | – | 7.66e5 | – | inactive |
| ste24c + CG30461 | DRSC07316 | 1.53e6 | 1.57e6 | 1.21e6 | 1.34e6 | inactive |
| dsh | DRSC19803 | 1.46e6 | 1.51e6 | 1.01e6 | 1.12e6 | inactive |
| kin17 | DRSC11890 | 1.63e6 | 1.67e6 | 1.11e6 | 1.29e6 | inactive |
| alpha-Man-Ib | DRSC14418 | 5.17e5 | – | 8.08e5 | – | inactive |
| CG10513 | DRSC14248 | 5.92e5 | – | 7.56e5 | – | inactive |
| CG13310 | DRSC09981 | 1.50e6 | 1.69e6 | 1.24e6 | 1.29e6 | inactive |
| Oatp33Eb | DRSC02955 | 1.67e6 | 1.69e6 | 1.37e6 | 1.48e6 | inactive |
| Nak | DRSC03379 | 1.31e6 | 1.34e6 | 1.31e6 | 1.24e6 | inactive |
| Tspo | DRSC00533 | 1.29e6 | 1.46e6 | 1.10e6 | 1.17e6 | inactive |
| Klc | DRSC11203 | 1.45e6 | 1.48e6 | 1.28e6 | 1.27e6 | inactive |

3 entries from above, reformatted.
ste24c + CG30461 [DRSC07316]: Kc cell number, rep 1 = 1.53e6; Kc cell number, rep 2 = 1.57e6; S2R+ cell number, rep 1 = 1.21e6; S2R+ cell number, rep 2 = 1.34e6; Call = inactive
dsh [DRSC19803]: Kc cell number, rep 1 = 1.46e6; Kc cell number, rep 2 = 1.51e6; S2R+ cell number, rep 1 = 1.01e6; S2R+ cell number, rep 2 = 1.12e6; Call = inactive
kin17 [DRSC11890]: Kc cell number, rep 1 = 1.63e6; Kc cell number, rep 2 = 1.67e6; S2R+ cell number, rep 1 = 1.11e6; S2R+ cell number, rep 2 = 1.29e6; Call = inactive

Additional reagents follow:
| Gene | dsRNA | Kc cell number, rep 1 | Kc cell number, rep 2 | S2R+ cell number, rep 1 | S2R+ cell number, rep 2 | Call |
| --- | --- | --- | --- | --- | --- | --- |
| trbd | DRSC16494 | 1.37e6 | 1.49e6 | 1.24e6 | 1.29e6 | inactive |
| Gr28b | DRSC02291 | 1.63e6 | 1.49e6 | 1.28e6 | 1.42e6 | inactive |
| Gr28b | DRSC02292 | 1.63e6 | 1.55e6 | 1.22e6 | 1.43e6 | inactive |
| GatA | DRSC16956 | 1.52e6 | 1.61e6 | 1.15e6 | 1.23e6 | inactive |
| CG4669 | DRSC10440 | 1.37e6 | 1.38e6 | 1.40e6 | 1.30e6 | inactive |
| Tep2 | DRSC02679 | 1.51e6 | 1.65e6 | 1.26e6 | 1.44e6 | inactive |
| Tep2 | DRSC03451 | 1.59e6 | 1.73e6 | 1.17e6 | 1.39e6 | inactive |
| Galphaf | DRSC11171 | 1.29e6 | 1.42e6 | 1.23e6 | 1.35e6 | inactive |
| CG17637 | DRSC11740 | 1.37e6 | 1.43e6 | 1.19e6 | 1.21e6 | inactive |
| CG14708 | DRSC14930 | 1.59e6 | 1.74e6 | 1.27e6 | 1.44e6 | inactive |
| Myo95E | DRSC15821 | 1.52e6 | 1.61e6 | 1.20e6 | 1.24e6 | inactive |
| CG4942 | DRSC10462 | 1.41e6 | 1.53e6 | 1.33e6 | 1.27e6 | inactive |
